Test results reported in patent publication US20240360177A1 (priority 2021, published 2024).
Starred links: 1 amine or outer side, 2 acyl side, 3 side chain; linkers in the order of their positions; H or OH if unused. Non-standard residues stand in square brackets, D forms with d. NH(CH2)9CO = O=C(CCCCCCCCCN[*:1])[*:2]; Aoc = NCCCCCCCC(=O)O

Experiment: general procedure: Fmoc solid-phase peptide synthesis; HBTU/HOBt and DIEA
Settings: whole synthesis, Analytical HPLC on a 5-micron C18 analytical column, water-acetonitrile buffers containing 0.1% TFA, acetate or chloride form by anion exchange resin

Row | Substance | final HPLC purity
1 | H-[dR]R[dR][Aoc][dR]R[dR][Aoc][dR]R[dR]R[Aoc][dR]R[dR]R-NH2 (SMILES N=C(N)NCCC[C@@H](N)C(=O)N[C@@H](CCCNC(=N)N)C(=O)N[C@H](CCCNC(=N)N)C(=O)NCCCCCCCC(=O)N[C@H](CCCNC(=N)N)C(=O)N[C@@H](CCCNC(=N)N)C(=O)N[C@H](CCCNC(=N)N)C(=O)NCCCCCCCC(=O)N[C@H](CCCNC(=N)N)C(=O)N[C@@H](CCCNC(=N)N)C(=O)N[C@H](CCCNC(=N)N)C(=O)N[C@@H](CCCNC(=N)N)C(=O)NCCCCCCCC(=O)N[C@H](CCCNC(=N)N)C(=O)N[C@@H](CCCNC(=N)N)C(=O)N[C@H](CCCNC(=N)N)C(=O)N[C@@H](CCCNC(=N)N)C(N)=O) | 92.7%
2 | H-[dR]R[dR][NH(CH2)9CO][dR]R[dR][Aoc][dR]R[dR]R[Aoc][dR]R[dR]R-OH (SMILES N=C(N)NCCC[C@@H](N)C(=O)N[C@@H](CCCNC(=N)N)C(=O)N[C@H](CCCNC(=N)N)C(=O)NCCCCCCCCCC(=O)N[C@H](CCCNC(=N)N)C(=O)N[C@@H](CCCNC(=N)N)C(=O)N[C@H](CCCNC(=N)N)C(=O)NCCCCCCCC(=O)N[C@H](CCCNC(=N)N)C(=O)N[C@@H](CCCNC(=N)N)C(=O)N[C@H](CCCNC(=N)N)C(=O)N[C@@H](CCCNC(=N)N)C(=O)NCCCCCCCC(=O)N[C@H](CCCNC(=N)N)C(=O)N[C@@H](CCCNC(=N)N)C(=O)N[C@H](CCCNC(=N)N)C(=O)N[C@@H](CCCNC(=N)N)C(=O)O) | 96.6%
3 | rRr-(ButylGly)-rRr-(ButylGly)-rRrR-(ButylGly)-rRrR-NH2 | 94.3%
